SMILES strings stand for the structures. The structures given here were assigned with low confidence; some may be wrong.

By UniProt entry, the sequences of proteins in these tests, tags left out.
UniProt P51686, whole entry: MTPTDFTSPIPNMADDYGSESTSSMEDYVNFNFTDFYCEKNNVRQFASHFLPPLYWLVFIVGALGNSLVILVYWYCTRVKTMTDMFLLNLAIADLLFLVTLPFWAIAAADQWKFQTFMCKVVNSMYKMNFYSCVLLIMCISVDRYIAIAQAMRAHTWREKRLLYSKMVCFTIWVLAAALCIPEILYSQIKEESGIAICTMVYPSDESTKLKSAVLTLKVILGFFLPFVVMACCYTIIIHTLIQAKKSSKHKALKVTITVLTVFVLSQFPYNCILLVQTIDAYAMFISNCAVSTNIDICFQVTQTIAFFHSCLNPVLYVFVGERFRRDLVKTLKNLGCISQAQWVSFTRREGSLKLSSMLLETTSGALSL

In assay [1] the target is T1, CCR9 (Homo sapiens, UniProt P51686). As to the kind of experiment: FLIPR calcium flux assay using MOLT4 cells (TECK stimulation). The following applies: MOLT4 cells (a human T-cell line); Ki determined from IC50 of TECK-induced intracellular calcium increase. The procedure: Biological Activity: FLIPR Assay Using MOLT4 Cells
A calcium flux assay was used to determine the ability of the compounds to interfere with the binding between CCR9 and its chemokine ligand (TECK) in MOLT4 cells (a human T-cell line). MOLT4 cells were seeded (100,000 cells/well) in coming cell culture plates (Cat #3603) in assay buffer (lx HBSS, 20 mM HEPES) containing 2.5 mM Probenecid. The plate was centrifuged at 1200 rpm for 3 minutes and incubated at 37° C./5% CO2 for 2 hours. A 0.3× Fluo-4 NW calcium dye was prepared in assay buffer containing 5 mM Probenecid and stored in the dark. Each well was loaded with 25 μL of 0.3× Fluo-4 NW calcium dye and incubated at 37 C/5% CO2 for 60 minutes and then at room temperature for 30 minutes. A half-log serially diluted concentration response curve was prepared at a 4× concentration for each (10 μM-0.1 nM final assay concentration) and 25 μL of the compound then transferred to the cells (100 μL final volume) for 60 minutes prior to stimulation (30 minutes at 37° C./5% CO2 and 30 minutes at room temperature). TECK was diluted to 5× its EC50 in assay buffer (containing 0.1% [w/v] bovine serum albumin [BSA]) and 25 μL dispensed through the FLIPR instrument to stimulate the cells (125 μL final volume). The increased in intracellular calcium levels was measured with the FLIPR instrument. The potency of the compound as CCR9 antagonist was calculated as an IC50 using GraphPad Prism software (variable slope four parameter). The Ki of the compound was determined from the IC50 values using the following equation.
Ki calculation: IC50/1+(Agonist (TECK) conc. used in assay/EC50 of agonist (TECK) generated on day of experiment)
(In general: A change in cytosolic calcium serves as a functional read-out for many receptors and channels.)

The target of assay [2] is T1, CCR9. The assay is described as follows: FLIPR calcium flux assay using hCCR9 over expressed cells (TECK stimulation). The following applies: Chem1-hCCR9 overexpressing cells; Ki determined from IC50 of TECK-induced intracellular calcium increase. As to the method: Biological Activity: FLIPR Assay Using hCCR9 Over Expressed Cells
A calcium flux assay was used to determine the ability of the compounds to interfere with the binding between CCR9 and its chemokine ligand (TECK) in Cheml-hCCR9 overexpressing cells. hCCR9 overexpressing cells were seeded (25,000 cells/well) into black Poly-D-Lysine coated clear bottom 96-well plates (BD Biosciences, Cat #356640) and incubated overnight at 37° C./5% CO2 in a humidified incubator. Media was aspirated and cells washed twice with 100 μL assay buffer (1×HBSS, 20 mM HEPES) containing 2.5 mM Probenecid. A 0.3× Fluo-4 NW calcium dye was prepared in assay buffer containing 5 mM Probenecid and stored in the dark. Each well was loaded with 100 μL of 0.3× Fluo-4 NW calcium dye and incubated at 37° C./5% CO2 for 60 minutes and then at room temperature for 30 minutes. […] TECK was diluted to 4× its ECso in assay buffer (containing 0.1% [w/v] bovine serum albumin[BSA]) and 50 μL dispensed through the fluorometric imaging plate reader (FLIPR) instrument to stimulate the cells (200 μL final volume). The increase in intracellular calcium levels was measured with the FLIPR instrument. The potency of the compound as a CCR9 antagonist was calculated as an IC50 using GraphPad Prism software (variable slope four parameter). The Ki of the compound was determined from the IC50 values using the following equation. […]

As to `Cn1cc(-c2cc3c(C#N)ccc(NS(=O)(=O)c4ccc(C(C)(C)C)cc4)n3n2)cn1`, the Ki – broadly, the equilibrium dissociation constant of an inhibitor or competing ligand from its target – is 17 nM at CCR9 [1] and 101 nM at CCR9 [2].

Regarding `CC(C)(C)c1ccc(S(=O)(=O)Nc2ccc(Cl)c3cc(-c4ccnnc4)nn23)cc1`, the Ki at CCR9 [1] was found to be 93 nM. Still for that read-out and setting: to `Cc1cc2nccc(NS(=O)(=O)c3ccc(N4CCCC4)cc3)n2n1` belongs 1110 nM.
